EP0529395A2, “Benzamide multidrug resistance reversing agents” (Bristol-Myers Squibb Company, priority 1991, dated 1993)

System: MCF-7
Test: Cytotoxic assay, Adriamycin in sensitive breast carcinoma cells
Type: cell-based
Conditions: Homo sapiens, MCF7; sensitive MCF-7 cells, no chemosensitizer; read-out: ADR IC50
Experimental: Cell Culture: HCT116/VM46 cells were selected from human colon carcinoma HCT116 cell line for resistance to VM26 and MCF-7/ADR cells were selected from human breast carcinoma MCF-7 cell line for resistance to Adriamycin. […] The cell lines were grown in tissue culture flasks containing McCoy's 5A medium and 10% fetal bovine serum. Cells were maintained at 37°C in a humidified atmosphere containing 5% C02 and subcultured every 5 days.
Cytotoxic Assay: The cells were seeded in 96 well microtiter plates at 5x10^3 cells per well and allowed to grow for 24 hours at 37 °C. Cells were then incubated with decreasing amounts of antitumor agents: Adriamycin (100 µM, maximal concentration) or actinomycin D (17.6 ng/ml), for MCF-7 and HCT-116 cells, respectively. Chemosensitizers were added at variable concentrations ranging from 0.08 µM to […]. In parallel, verapamil was used as positive control at the same concentrations. After 48 hours of incubation, the cells were washed, fixed and stained with crystal violet. Absorbance was read by Molecular Devices' microtiter plate reader at the wavelength of 595nm. The IC50 value (50% inhibition of cell growth) was determined from relative survival rates resulted from two to three independent experiments. […]

Structure (SMILES): COc1cccc2c1C(=O)c1c(O)c3c(c(O)c1C2=O)C[C@@](O)(C(=O)CO)C[C@@H]3O[C@H]1C[C@H](N)[C@H](O)[C@H](C)O1 [ADR, Adriamycin]
- IC50: 0.36 µM
